Two substances from publication PMC4235626 can be followed below.

The chains behind the UniProt entries cited, without tags or fusion partners. Where a name states a change or a piece, a line headed by the entry shows the natural chain unless it says otherwise. A line that says so, or that is headed by a name, gives the form on record, which may keep a tag or linker. Residues count along the entry.
lamin A, endogenous (the lamin A band of lamin A/C) (human (endogenous in IMR90)) (P02545, residues 1-646): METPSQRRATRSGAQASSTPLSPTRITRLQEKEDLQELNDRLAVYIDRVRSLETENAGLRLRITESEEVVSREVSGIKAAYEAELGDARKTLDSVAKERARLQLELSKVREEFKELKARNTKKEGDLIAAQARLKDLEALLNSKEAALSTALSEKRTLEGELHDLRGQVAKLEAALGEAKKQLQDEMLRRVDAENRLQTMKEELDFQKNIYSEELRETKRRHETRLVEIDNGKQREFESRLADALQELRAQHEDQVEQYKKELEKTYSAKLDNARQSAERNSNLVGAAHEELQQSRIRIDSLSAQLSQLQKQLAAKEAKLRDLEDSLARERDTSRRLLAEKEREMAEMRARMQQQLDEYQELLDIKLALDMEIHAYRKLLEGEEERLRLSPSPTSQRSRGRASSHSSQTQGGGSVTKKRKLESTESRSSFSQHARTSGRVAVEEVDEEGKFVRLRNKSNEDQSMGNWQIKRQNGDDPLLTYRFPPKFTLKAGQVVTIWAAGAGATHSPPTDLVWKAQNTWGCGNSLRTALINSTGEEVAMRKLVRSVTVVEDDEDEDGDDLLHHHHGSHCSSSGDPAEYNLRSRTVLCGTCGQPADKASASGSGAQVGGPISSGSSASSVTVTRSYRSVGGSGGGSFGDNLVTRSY
lamin C, endogenous (the lamin C band of lamin A/C) (P02545-2, form named): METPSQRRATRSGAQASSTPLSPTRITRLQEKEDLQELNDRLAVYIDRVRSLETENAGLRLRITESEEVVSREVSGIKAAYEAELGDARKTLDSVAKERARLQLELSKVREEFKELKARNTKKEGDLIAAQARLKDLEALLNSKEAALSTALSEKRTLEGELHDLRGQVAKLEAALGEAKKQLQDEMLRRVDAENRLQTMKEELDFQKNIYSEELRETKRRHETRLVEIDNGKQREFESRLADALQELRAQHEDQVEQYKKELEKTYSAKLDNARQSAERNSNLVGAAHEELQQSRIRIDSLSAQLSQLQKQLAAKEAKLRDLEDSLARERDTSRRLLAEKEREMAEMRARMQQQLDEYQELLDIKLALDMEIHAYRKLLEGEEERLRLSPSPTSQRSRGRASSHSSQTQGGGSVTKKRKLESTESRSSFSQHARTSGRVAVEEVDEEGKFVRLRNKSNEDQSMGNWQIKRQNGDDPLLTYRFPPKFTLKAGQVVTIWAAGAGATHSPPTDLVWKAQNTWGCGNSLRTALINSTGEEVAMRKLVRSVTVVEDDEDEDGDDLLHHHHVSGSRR
UniProt Q15554: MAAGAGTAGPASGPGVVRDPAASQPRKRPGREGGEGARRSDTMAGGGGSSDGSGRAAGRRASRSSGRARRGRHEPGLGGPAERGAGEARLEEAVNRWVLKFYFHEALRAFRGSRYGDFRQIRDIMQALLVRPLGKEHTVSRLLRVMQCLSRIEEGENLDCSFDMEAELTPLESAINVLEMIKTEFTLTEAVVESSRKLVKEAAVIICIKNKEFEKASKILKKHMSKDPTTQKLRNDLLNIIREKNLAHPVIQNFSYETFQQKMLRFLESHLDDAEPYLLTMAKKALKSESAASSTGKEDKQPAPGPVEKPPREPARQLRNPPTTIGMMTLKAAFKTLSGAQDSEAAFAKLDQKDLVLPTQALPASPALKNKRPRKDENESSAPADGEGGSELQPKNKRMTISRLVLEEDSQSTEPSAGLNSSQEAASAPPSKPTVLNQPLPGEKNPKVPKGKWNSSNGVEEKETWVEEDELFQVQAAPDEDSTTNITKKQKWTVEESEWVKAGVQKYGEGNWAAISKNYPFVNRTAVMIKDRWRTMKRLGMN
UniProt P54274: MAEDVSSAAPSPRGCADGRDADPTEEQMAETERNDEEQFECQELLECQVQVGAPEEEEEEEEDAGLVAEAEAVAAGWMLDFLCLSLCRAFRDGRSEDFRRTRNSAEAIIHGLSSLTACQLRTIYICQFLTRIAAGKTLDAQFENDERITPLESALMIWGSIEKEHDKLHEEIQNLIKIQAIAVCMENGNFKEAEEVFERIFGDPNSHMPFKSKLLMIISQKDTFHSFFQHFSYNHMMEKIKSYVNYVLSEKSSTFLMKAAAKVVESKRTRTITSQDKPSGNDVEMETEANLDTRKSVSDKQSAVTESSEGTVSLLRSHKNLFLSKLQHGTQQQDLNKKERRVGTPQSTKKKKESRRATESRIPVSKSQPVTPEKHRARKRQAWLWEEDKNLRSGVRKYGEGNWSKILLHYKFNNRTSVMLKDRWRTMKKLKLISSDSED

No constants are given. Whether binding was seen depends on the method and setting. Binding seen in cells or lysates may run through a third protein. Some entries that bind do so weakly or less than the wild type.

The target of experiment [1] is lamin A, endogenous (the lamin A band of lamin A/C) (human (endogenous in IMR90)) (UniProt P02545). The experiment can be described thus: co-IP; endogenous lamin A/C precipitated from IMR90 lysate with goat anti-lamin A/C and protein G Dynabeads; lysis in 1% Triton X-100, 50 mM Tris pH 7.4, 300 mM NaCl, 5 mM EDTA; 4 °C; blot for TRF2 or GFP.
In experiment [2] the target is lamin C, endogenous (the lamin C band of lamin A/C) (human (endogenous in IMR90)) (UniProt P02545). Described as above.
The target of experiment [3] is telomere repeat-binding factor 2 (TRF2), endogenous (human (endogenous in IMR90)) (UniProt Q15554). As to the kind of experiment: co-IP; endogenous TRF2 precipitated from IMR90 lysate with rabbit anti-TRF2 and protein G Dynabeads; lysis in 1% Triton X-100, 50 mM Tris pH 7.4, 300 mM NaCl, 5 mM EDTA; 4 °C; blot for lamin A/C or GFP.

Consider “wild-type GFP-TRF1 (from UniProt P54274 1-439)”, for which the binding result in experiment [1] and in experiment [2] was “no binding” in each case.
For “lamin C, endogenous (the lamin C band of lamin A/C) (from UniProt P02545-2 1-572)”, in experiment [3], the binding entry is reported as “binds”.
